Assay results as given in patent US12337053B2, “Method and composition for coloring a keratinous substrate using solubilized vat dyes” (Wella Germany GmbH, priority 2020, dated 2025).

Test: Coloration of hair switches with solubilized vat dyes (general procedure), natural blond hair
Parameters: species or system human
Excerpt: The coloring method described in the following examples, which method uses solubilized vat dyes, comprises the steps of applying leuco vat dye sulfuric esters, hydrolyzing the leuco vat dye sulfuric esters to the leuco form, and actively oxidizing the leuco form to the respective insoluble pigment form of the vat dyes.
Penetration occurs under mild alkaline conditions at pH=9 in the presence of ammonia or other penetration enhancers such as urea. At this point in time it is important to keep the sulfuric ester structure intact to avoid any early oxidation of the solubilized vat dye as this will distract the penetration process and will lead to incomplete use of the applied dye amount which will result in an unsatisfactory color result. In order to prevent the solubilized vat dyes to start the oxidation at that point in time, sodium sulfite as reducing agent may be added to the coloring mixture. Addition of sodium meta bisulfite as described in U.S. Pat. No. 5,364,415 (Lewis et. al.), to lower the alkaline pH given by the addition of ammonia or urea down to pH=6 is not beneficial as it will hinder the solubilized vat dye to penetrate, and will decrease the swelling of the keratin fiber which needs mild alkaline conditions.
The alkaline dyeing solution is then treated with, for example, acetic acid, ascorbic acid, boric acid or citric acid to adjust the pH to mildly acidic, for example pH 3.0-3.5. This pH change will trigger hydrolysis of the sulfuric ester to yield the free vat acid (leuco form). This process typically will require no more than 10 min, after which time the solubilized vat dye esters are completely hydrolyzed. At that point in time the leuco form has reached the maximum sensitivity to oxidizers.
The hair is briefly rinsed with water to remove any excess remaining dye material from the surface of the hair. After that, any oxidizing procedure can be applied. This includes very gentle conditions using hydrogen peroxide solutions from 1-12% by volume. Common in the hair color industry are the following typical concentrations: 1.9, 6, 9 or 12% by volume. Hydrogen peroxide can be applied also together with bleaching agents such as sodium/potassium/ammonium persulfate or percarbonates. The oxidation to convert the leuco form to the vat dye pigments is typically completed within 20 min. Simultaneously lifting of the hair (oxidizers keep also oxidizing natural melanin in the hair) will be completed within the same time frame. […] A significant advantage is that any formulations can totally skip the use of organic solvents and alcohols such as ethanol or iso-propyl-alcohol.
2 g urea (penetration enhancer), 200 mg sodium sulfite (reducing agent) and 120 mg of the respective solubilized vat dye (color component) are dissolved in 15 ml water. This simple mixture is already sufficient to obtain the desired colorations on hair. In principal, all additional components which are a typical ingredients of an oxidative hair coloring system in addition to the above-mentioned components can be applied as well with no exception and without negative impact on the coloring result. This includes the following ingredient groups: coloring agents (solubilized vat dyes), penetration enhancers/alkalizers (e.g. ammonia, urea), reducing agents/radical scavengers (e.g. sodium sulfite etc.), chelating agents (e.g. EDTA, EDDS, editronic acid) etc.), fragrances, care components (e.g. hydrolyzed keratin, dimethicone, polyquaternium types etc.) texture ingredients (e.g. carbomer, cocoamide, hydroxyethyl cellulose etc.), medium reagents (e.g. cetearyl alcohol, lanolin alcohol, glycerin stearate etc.) and surfactants (e.g. laurylether sulfate, lauryl sulfo acetate etc.).
This aqueous solution is heated gently to 40° C. and 1-2 hair switches are placed in the coloring bath for 25-30 min. […]

[1] = Hydrogen peroxide 12% plus Blondor powder, ratio 1:1

| Structure (SMILES) | L a b value: L (Hydrogen peroxide 9%, pH = 9) | L a b value: L [1] |
| --- | --- | --- |
| COc1cc2c3ccccc3c(OS(=O)(=O)[O-])c3ccc4c5ccc6c(OS(=O)(=O)[O-])c7ccccc7c7cc(OC)c(c1c4c32)c5c67.[Na+].[Na+] [solubilized vat green 1] | L = 31.82 | L = 22.36 |
| O=S(=O)([O-])Oc1c2ccccc2c2ccc3c4ccc5c(OS(=O)(=O)[O-])c6c(Cl)c(Cl)ccc6c6ccc(c7ccc1c2c37)c4c56.[Na+].[Na+] [solubilized vat violet 1] | L = 11.14 | L = 10.36 |
| O=S(=O)([O-])Oc1c2ccccc2c2ccc3c(OS(=O)(=O)[O-])c4ccccc4c4ccc1c2c34.[Na+].[Na+] [solubilized vat yellow 4] | L = 57.23 | L = 55.69 |
